Data as given in PubChem BioAssay AID504764 (Drosophila RNAi Screening Center, 2011)

- Test: 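Knock-downs that raise or lower a Notch target reporter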 (primary screen)
- Cells: Drosophila Kc167 cells
- Reagent: long dsRNA against Drosophila genes
- Timing: about 5 days (4 days dsRNA, then 24 h after transfection)
- Challenge: transfection of constitutively active membrane-tethered Notch lacking the extracellular domain, read 24 h later
- Detection: 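Firefly luciferase from an E(spl)m3 reporter with active Notch, plus control-promoter and uninduced reporter wells for normalisation; unnormalised counts, duplicate wells a and b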
- Reading the numbers: induced reporter light, run 1, well a and induced reporter light, run 1, well b: higher = more light from the Notch target reporter with active Notch; control promoter light, run 1, well a and control promoter light, run 1, well b: higher = more light from the viral control promoter (cell number, transfection, viability); uninduced reporter light, run 1, well a: higher = more light from the Notch target reporter without active Notch
- Call rule: 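Hit if the duplicate-averaged log2 ratio of induced to control-promoter light gives a plate-wise z beyond ±2, or induced to uninduced beyond ±1.8; weak-control or discordant-duplicate wells dropped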
- Meaning of the calls: active = modifier hit (raised or lowered Notch signal); inactive = not a hit
In all, the deposit lists about 22,000 reagents; below is an unselected part of those that have a named target and a result. Of all reagents, 403 (1.9%) were called active. 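Unnormalised raw counts per well; ratio z-scores behind the hit calls and whether each hit raises or lowers signal are not deposited.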 Reagents against one gene are numbered here. A plus sign joins genes that one reagent is predicted to hit. Not given: the amount of reagent.

predicted target	dsRNA no.	induced reporter light, run 1, well a	induced reporter light, run 1, well b	control promoter light, run 1, well a	control promoter light, run 1, well b	uninduced reporter light, run 1, well a	Outcome
CG13325	1	1.61e5	1.57e5	1.27e5	1.29e5	10460	inactive
CG18234	1	1.38e5	1.73e5	2.30e5	1.68e5	9410	inactive
CG5768	1	1.09e5	1.19e5	1.00e5	1.19e5	10432	inactive
CG9875	1	2.17e5	1.83e5	1.91e5	1.55e5	15790	inactive
CG1620	1	2.19e5	2.24e5	1.78e5	2.09e5	18315	inactive
snu (snustorr)	1	1.84e5	1.67e5	2.53e5	1.78e5	11560	inactive
AkhR (Adipokinetic hormone receptor)	1	1.37e5	1.63e5	1.68e5	1.86e5	14615	inactive
CG11226	1	1.26e5	1.04e5	1.02e5	1.10e5	7600	inactive
Arpc4 (Actin-related protein 2/3 complex, subunit 4)	1	88900	79060	89190	63595	4235	inactive
CG15930	1	1.73e5	1.73e5	3.11e5	2.64e5	13688	inactive
CG3176 + CR18166 + CG32817	1	64890	73400	97180	1.13e5	5465	inactive
CG3176 + CR18166 + CG32817	2	58260	61350	98225	78180	5095	inactive
CG3176 + CR18166 + CG32817	3	1.56e5	1.83e5	2.14e5	2.08e5	12595	inactive
Rsph1 (Radial spoke head protein 1)	1	1.71e5	1.75e5	1.82e5	1.86e5	18205	inactive
Trm1 (tRNA methyltransferase 1)	1	1.70e5	2.31e5	1.54e5	2.08e5	16460	inactive
Taf2 (TBP-associated factor 2)	1	95510	72760	55670	33715	7050	inactive
rempA (reduced mechanoreceptor potential A)	1	1.16e5	1.02e5	1.05e5	69945	10795	inactive
kappaTry	1	1.28e5	1.14e5	1.41e5	1.36e5	9888	inactive
B-H2 (BarH2)	1	3505	3050	3155	3295	4435	inactive
CG5727	1	2.19e5	2.32e5	1.73e5	2.15e5	16790	inactive
l(2)10685 (lethal (2) 10685)	1	2.29e5	2.59e5	2.34e5	2.33e5	21200	inactive
CG14826	1	1.99e5	1.53e5	2.29e5	2.27e5	7995	inactive
Sln (Silnoon)	1	1.11e5	1.01e5	1.42e5	1.36e5	10620	inactive
CG6409	1	99950	87375	84240	29835	9965	inactive
T3dh + pgc	1	1.69e5	1.65e5	1.11e5	1.40e5	12320	inactive
Flo1 (Flotillin 1)	1	1.23e5	1.64e5	2.29e5	2.49e5	12645	inactive
P5CDh1 (delta-1-Pyrroline-5-carboxylate dehydrogenase 1)	1	1.88e5	1.70e5	1.10e5	1.51e5	11385	inactive
Brd8 (Bromodomain containing 8)	1	1.70e5	1.95e5	2.17e5	2.23e5	11540	inactive
CG34315 + Orc3	1	1.58e5	1.55e5	1.79e5	1.67e5	13165	inactive
Cyp4ac2 (Cytochrome P450 4ac2)	1	1.76e5	1.71e5	1.87e5	1.81e5	12060	inactive
CG8202	1	80590	87590	53305	48355	5170	inactive
CG9240	1	60780	76590	96005	48595	8480	inactive

Continued; the last 2 above are carried over.
predicted target	dsRNA no.	induced reporter light, run 1, well a	induced reporter light, run 1, well b	control promoter light, run 1, well a	control promoter light, run 1, well b	uninduced reporter light, run 1, well a	Outcome
CG8202	1	80590	87590	53305	48355	5170	inactive
CG9240	1	60780	76590	96005	48595	8480	inactive
Efa6 (Exchange factor for Arf 6)	1	57320	46080	83170	66915	7305	inactive
Efa6 (Exchange factor for Arf 6)	2	60795	48000	20180	20255	9495	inactive
Efa6 (Exchange factor for Arf 6)	3	2.04e5	1.89e5	1.96e5	1.52e5	11220	inactive
Mpv17 (Mitochondrial inner membrane protein MPV17)	1	1.12e5	1.08e5	2.06e5	2.02e5	8705	inactive
Ppi1 (Protein phosphatase 1c interacting protein 1)	1	1.62e5	1.68e5	2.43e5	2.40e5	9825	inactive
GNBP3 (Gram-negative bacteria binding protein 3)	1	1.77e5	2.03e5	2.46e5	1.66e5	12545	inactive
RecQ5 (RecQ5 helicase)	1	1.61e5	1.65e5	90475	95715	12475	inactive
HP1e (Heterochromatin Protein 1e)	1	77010	70670	77775	72400	6505	inactive
CG16879 (retired record)	1	2.05e5	1.73e5	1.60e5	1.54e5	16615	inactive
CG32187	1	2.28e5	2.26e5	2.68e5	2.27e5	9835	inactive
LeuRS (Leucyl-tRNA synthetase)	1	1.25e5	1.06e5	1.06e5	1.33e5	7015	inactive
CG31717	1	1.71e5	1.61e5	1.88e5	1.50e5	10300	inactive
Nubp1 (NUBP iron-sulfur cluster assembly factor 1)	1	1.88e5	2.06e5	1.81e5	1.71e5	18140	inactive
CG3335	1	31600	39090	38135	44300	1782	inactive
CG8492	1	1.53e5	1.59e5	1.75e5	1.46e5	7525	inactive
CG9628	1	1.01e5	1.29e5	76315	87640	8205	inactive
Atg10 + CG12822	1	2.53e5	2.24e5	2.99e5	2.86e5	19050	inactive
CG16824	1	88290	1.17e5	1.04e5	1.26e5	7915	inactive
